Source: publication PMC5986788, “Succinate induces aberrant mitochondrial fission in cardiomyocytes through GPR91 signaling” (Cell Death & Disease, 2018)
Results are given in words; binding and its absence hold for the method and conditions named. In cells and extracts the contact can be indirect. Some results given as binding are weak or reduced against the parent protein; the word gives no strength.

The chains behind the UniProt entries cited, without tags or fusion partners.
UniProt Q8K1M6: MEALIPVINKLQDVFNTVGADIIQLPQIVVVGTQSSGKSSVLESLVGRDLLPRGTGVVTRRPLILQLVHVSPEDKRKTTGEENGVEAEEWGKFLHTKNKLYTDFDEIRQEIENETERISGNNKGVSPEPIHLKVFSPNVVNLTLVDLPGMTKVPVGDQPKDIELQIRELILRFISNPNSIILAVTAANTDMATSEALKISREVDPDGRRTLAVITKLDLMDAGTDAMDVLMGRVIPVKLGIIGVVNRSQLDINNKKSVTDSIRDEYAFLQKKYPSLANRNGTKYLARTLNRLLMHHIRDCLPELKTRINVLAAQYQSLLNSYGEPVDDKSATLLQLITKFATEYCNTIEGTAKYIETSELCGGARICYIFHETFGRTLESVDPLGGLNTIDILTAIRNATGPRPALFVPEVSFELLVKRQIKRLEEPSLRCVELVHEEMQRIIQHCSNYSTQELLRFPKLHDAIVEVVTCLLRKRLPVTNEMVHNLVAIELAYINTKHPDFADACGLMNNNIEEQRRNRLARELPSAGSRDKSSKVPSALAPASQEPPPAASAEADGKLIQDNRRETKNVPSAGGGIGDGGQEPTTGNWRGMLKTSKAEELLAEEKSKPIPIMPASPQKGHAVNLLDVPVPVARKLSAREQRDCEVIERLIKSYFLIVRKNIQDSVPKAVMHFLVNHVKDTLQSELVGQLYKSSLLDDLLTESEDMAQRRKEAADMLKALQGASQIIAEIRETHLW

Biological target: T1, mitochondrial fission factor (MFF), mouse (mouse (endogenous in heart tissue)) (UniProt Q6PCP5)
T1 sequence: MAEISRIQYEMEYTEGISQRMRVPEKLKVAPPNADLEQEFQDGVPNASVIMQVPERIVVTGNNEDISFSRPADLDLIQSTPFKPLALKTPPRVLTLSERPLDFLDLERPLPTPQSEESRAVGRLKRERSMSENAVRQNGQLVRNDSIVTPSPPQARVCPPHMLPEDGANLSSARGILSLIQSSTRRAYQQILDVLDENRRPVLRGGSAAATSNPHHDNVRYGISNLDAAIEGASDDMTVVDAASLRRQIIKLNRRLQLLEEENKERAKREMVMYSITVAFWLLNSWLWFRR
Experiment: co-IP; endogenous proteins in mouse cardiac tissue lysate; anti-Drp1 or anti-MFF antibody overnight at 4 °C, protein A+G agarose 2 h, western blot; mice given isoproterenol with or without dimethyl malonate

## dynamin-related protein 1 (Drp1), mouse (from UniProt Q8K1M6 1-736)
  binding: binds
